According to publication PMC7203900:
Results are given in words; binding and its absence hold for the method and conditions named. Binding seen in cells or lysates may run through a third protein. Some results given as binding are weak or reduced against the parent protein; the word gives no strength.

By UniProt entry, the sequences of proteins in these tests, tags left out.
UniProt O15392: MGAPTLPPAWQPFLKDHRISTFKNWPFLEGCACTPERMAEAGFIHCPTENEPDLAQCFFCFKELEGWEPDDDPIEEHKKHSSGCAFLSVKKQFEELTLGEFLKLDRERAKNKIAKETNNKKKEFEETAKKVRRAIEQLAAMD
UniProt P98170: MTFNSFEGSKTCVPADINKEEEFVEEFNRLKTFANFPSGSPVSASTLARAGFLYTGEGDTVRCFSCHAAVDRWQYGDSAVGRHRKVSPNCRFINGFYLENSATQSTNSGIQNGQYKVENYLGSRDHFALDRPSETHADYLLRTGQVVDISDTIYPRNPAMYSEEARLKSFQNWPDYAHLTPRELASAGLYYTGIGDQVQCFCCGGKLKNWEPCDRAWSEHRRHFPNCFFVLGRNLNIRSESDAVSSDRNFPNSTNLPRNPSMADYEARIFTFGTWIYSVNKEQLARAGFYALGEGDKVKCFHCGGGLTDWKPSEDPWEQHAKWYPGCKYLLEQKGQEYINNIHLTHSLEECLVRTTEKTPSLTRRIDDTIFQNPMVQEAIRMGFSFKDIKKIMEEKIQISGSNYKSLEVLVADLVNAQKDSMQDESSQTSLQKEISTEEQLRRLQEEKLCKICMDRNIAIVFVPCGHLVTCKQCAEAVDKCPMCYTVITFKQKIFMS

Key:
Assay in all cases: co-IP; endogenous proteins from HCT116 and RKO cells lysed in 1% Triton X-100, 50 mM Tris-Cl pH 7.4, 150 mM NaCl, 10 mM EDTA; precipitated with anti-survivin, anti-XIAP or anti-TAB1 antibody, Western blot
[1] = target: survivin (human (endogenous in HCT116 and RKO)) (UniProt O15392)
[2] = target: XIAP (human (endogenous in HCT116 and RKO)) (UniProt P98170)
[3] = target: T1, TAB1 (human (endogenous in HCT116 and RKO)) (UniProt Q15750)
T1 sequence: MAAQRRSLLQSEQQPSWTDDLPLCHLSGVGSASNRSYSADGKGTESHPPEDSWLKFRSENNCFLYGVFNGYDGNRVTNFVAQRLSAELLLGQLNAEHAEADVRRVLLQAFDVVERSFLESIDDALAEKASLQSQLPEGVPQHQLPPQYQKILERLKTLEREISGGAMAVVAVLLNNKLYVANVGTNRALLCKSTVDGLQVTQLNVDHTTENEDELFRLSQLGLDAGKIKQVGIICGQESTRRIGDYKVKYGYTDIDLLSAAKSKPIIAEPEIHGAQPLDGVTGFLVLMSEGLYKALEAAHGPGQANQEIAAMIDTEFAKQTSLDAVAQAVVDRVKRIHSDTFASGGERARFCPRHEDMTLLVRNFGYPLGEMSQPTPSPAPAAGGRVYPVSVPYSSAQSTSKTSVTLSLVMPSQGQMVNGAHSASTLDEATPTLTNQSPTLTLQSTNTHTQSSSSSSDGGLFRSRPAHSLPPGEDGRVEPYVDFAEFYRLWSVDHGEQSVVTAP

Molecule: XIAP (from UniProt P98170 1-497)
- binding [1]: binds

Molecule: survivin (from UniProt O15392 1-142)
- binding [2]: binds

B1: TAK1 (protein, UniProt O43318 1-606)
chain: MSTASAASSSSSSSAGEMIEAPSQVLNFEEIDYKEIEVEEVVGRGAFGVVCKAKWRAKDVAIKQIESESERKAFIVELRQLSRVNHPNIVKLYGACLNPVCLVMEYAEGGSLYNVLHGAEPLPYYTAAHAMSWCLQCSQGVAYLHSMQPKALIHRDLKPPNLLLVAGGTVLKICDFGTACDIQTHMTNNKGSAAWMAPEVFEGSNYSEKCDVFSWGIILWEVITRRKPFDEIGGPAFRIMWAVHNGTRPPLIKNLPKPIESLMTRCWSKDPSQRPSMEEIVKIMTHLMRYFPGADEPLQYPCQYSDEGQSNSATSTGSFMDIASTNTSNKSDTNMEQVPATNDTIKRLESKLLKNQAKQQSESGRLSLGASRGSSVESLPPTSEGKRMSADMSEIEARIAATTAYSKPKRGHRKTASFGNILDVPEIVISGNGQPRRRSIQDLTVTGTEPGQVSSRSSSPSVRMITTSGPTSEKPTRSHPWTPDDSTDTNGSDNSIPMAYLTLDHQLQPLAPCPNSKESMAVFEQHCKMAQEYMKVQTEIALLLQRKQELVAELDQDEKDQQNTSRLVQEHKKLLDENKSLSTYYQQCKKQLEVIRSQQQKRQGTS
- binding [3]: binds
